Assay results taken from article PMC5387054, “Zinc-Dependent Transcriptional Regulation in Paracoccus denitrificans”.

Molecular target: T1, Zur (Paracoccus denitrificans) (UniProt A1B9K9)
T1 sequence (looked up): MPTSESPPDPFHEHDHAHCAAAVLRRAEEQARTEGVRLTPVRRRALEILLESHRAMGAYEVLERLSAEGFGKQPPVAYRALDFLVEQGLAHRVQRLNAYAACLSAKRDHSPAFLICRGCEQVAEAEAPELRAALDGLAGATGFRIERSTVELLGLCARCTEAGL
Experiment: EMSA
Conditions: 100 uM EDTA, EMSA: 10 mM Tris pH 8.0, 10 mM NaCl, 100 mM K-glutamate, 50 mM KCl, 1 mM DTT, 1.07 ug/ml BSA, 0.1 uM DNA, 0-20 uM Zur, 25 uM ZnCl2, 100 uM EDTA, 30 min room temperature, recombinant protein, residues 1-164, protein details: MBP (pMAL-c5X) removed by Factor Xa, probe letters rebuilt from the primers and the genome

Measured: binding result

TTCCGGACAAAATGTCCAGCTTTTGCTTCACTTGACTTTCATCAATGAGCGACTCACGCTTGCCGGACAGTGAGGTCTTATCGGAAATAACAGATAGGGGACCCGCGTCATGAGCGAAATCATGACCAAGAACATGGCCCGGAACGTCTTCTA (double strand) [norC promoter]
binds more weakly: 25 uM Zn2+, shift begins ~5 uM Zur, weakest target but above negative control

CGGCAAGGACAAGGGAAGAAGGTCGGATCATGGCGAGACTCACTTGCGGAAACGCCAAGGTTATTTATGTTATATCGTAACCCGTCAAGCAAAAATGTAACGATATAACATCATGCCCACTTCGGAATCCCCGCCTGACCCGTTTCACG (double strand) [zur/znuA promoter (149 bp)]
binds more weakly: 10 uM apo-Zur + 25 uM Cu2+, same as apo | 10 uM apo-Zur + 25 uM Fe2+, same as apo | 10 uM apo-Zur + 25 uM Mn2+, same as apo | 10 uM apo-Zur + 25 uM Ni2+, same as apo | 10 uM apo-Zur, no metal

For at least one entry, the source does not settle the construct or the ends of the probe. A weaker result is weaker than the reference pair of the same experiment. Protein sequences can lack the tags named with them.
